pIC50: −log10 of the molar value. At least one structure is not confirmed: it was looked up by name or label, or the drawing left a doubt.
Assays:
Type in all cases: cell-based, human
MV4;11 cells = experiment: Cell proliferation experiment (Alamar blue, 72 h), MV4;11; settings: read-out: Inhibitory activity IC50 on MV4;11
Method: (§1) Reagents: RPMI-1640 medium, McCoy's 5A medium, IMDM medium, MEM medium, L-15 medium, fetal bovine serum. Penicillin-Streptomycin double antibody, trypsin, etc., 2-mercaptoethanol, NEAA, pyruvate, etc.
(§2) The cells were cultured in conventional ways, and the cells should be passed at least 2 generations before plating. Cells at the logarithmic growth phase were collected, prepared into single cell suspensions and counted. The concentration of cells was adjusted to the desired concentration, and cells were inoculated into a 96-well cell culture plate at 100 μl per well. 100 μL of complete medium of the test compound were added to each well, set up 2 duplicate wells for each concentration, and diluted with a 5-fold gradient, and continued to culture for 72 h. All cells were subjected to IC50 test for corresponding samples. The experimental results are shown in Test Example 4.
(§3) The fluorescence intensity of each well was detected using the Alarm blue method, and IC50 was calculated.
(§4) IC50 was calculated according to the following formula:
(§5) Y=Max+(Min−Max)/[1+(X/IC50)×Slope]
(§6) wherein Min, Max and Slope represent the minimum, maximum and slope respectively.

MDA-MB-231 cells = experiment: Cell proliferation experiment, MDA-MB-231; settings: read-out: Inhibitory activity IC50 on MDA-MB-231
Method: as §1, §2, §3, §4, §5, §6

Daudi cells = experiment: Cell proliferation experiment, Daudi; settings: read-out: Inhibitory activity IC50 on Daudi
Method: as §1, §2, §3, §4, §5, §6

For `CC[C@@H]1C(=O)N(C)c2cnc(Nc3ccc(-c4cn([C@H]5CC[C@@H](N(CCOCCC#Cc6cccc7c6CN(C6CCC(=O)NC6=O)C7=O)C(=O)OCc6ccc(NC(=O)[C@H](CC(N)=O)NC(=O)[C@H](C)NC(=O)[C@H](C)NC(=O)COCCOC)cc6)CC5)nn4)cc3OC)nc2N1C1CCCC1` (stereo partly drawn) [UB-181193, PEG-AAN-PAB-961], the pIC50 (MV4;11 cells) was 7.00 to 8.00, the pIC50 (MDA-MB-231 cells) was 6.00 to 7.00 and the pIC50 (Daudi cells) was 6.00 to 7.00.

From patent US20230210999A1, “TARGETED PROTEASE DEGRADATION (TED) PLATFORM” (EUBULUS BIOTHERAPEUTICS INC., priority 2020, published 2023)
